Laboratory results from patent US20250129121A1, “POLYPEPTIDE, PRODUCT INCLUDING POLYPEPTIDE FOR INHIBITING FUSOBACTERIUM NUCLEATUM, OR DRUG FOR PREVENTING COLORECTAL CANCER” (priority 2022, published 2025).
Some entries share one result that the patent states for a list of compounds. Where a SMILES comes first, the peptide text is derived from it.

Assay: Self-assembly by dynamic light scattering
Format: physicochemical
Conditions: 32 μM

SMILES: N=C(N)NCCC[C@H](NC(=O)CNC(=O)[C@@H]1CCCN1C(=O)[C@H](CCCNC(=N)N)NC(=O)[C@H](Cc1c[nH]c2ccccc12)NC(=O)[C@H](Cc1c[nH]cn1)NC(=O)[C@H](Cc1c[nH]c2ccccc12)NC(=O)[C@H](CCCNC(=N)N)NC(=O)[C@H](Cc1c[nH]c2ccccc12)NC(=O)[C@H](Cc1c[nH]cn1)NC(=O)[C@@H](N)Cc1c[nH]c2ccccc12)C(=O)N[C@@H](Cc1c[nH]c2ccccc12)C(=O)N[C@@H](Cc1c[nH]cn1)C(=O)N[C@@H](Cc1c[nH]c2ccccc12)C(=O)N[C@@H](CCCNC(=N)N)C(=O)N[C@@H](Cc1c[nH]c2ccccc12)C(=O)N[C@@H](Cc1c[nH]cn1)C(=O)N[C@@H](Cc1c[nH]c2ccccc12)C(=O)O [P8, WHWRWHWRPGRWHWRWHW] (H-WHWRWHWRPGRWHWRWHW-OH; N-terminus assumed)
- linearity of self-assembled structure: exceed 1,000 nm

SMILES: N=C(N)NCCC[C@H](NC(=O)CNC(=O)[C@@H]1CCCN1C(=O)[C@H](CCCNC(=N)N)NC(=O)[C@H](Cc1c[nH]c2ccccc12)NC(=O)[C@H](CCCCN)NC(=O)[C@H](Cc1c[nH]c2ccccc12)NC(=O)[C@H](CCCNC(=N)N)NC(=O)[C@H](Cc1c[nH]c2ccccc12)NC(=O)[C@H](CCCCN)NC(=O)[C@@H](N)Cc1c[nH]c2ccccc12)C(=O)N[C@@H](Cc1c[nH]c2ccccc12)C(=O)N[C@@H](CCCCN)C(=O)N[C@@H](Cc1c[nH]c2ccccc12)C(=O)N[C@@H](CCCNC(=N)N)C(=O)N[C@@H](Cc1c[nH]c2ccccc12)C(=O)N[C@@H](CCCCN)C(=O)N[C@@H](Cc1c[nH]c2ccccc12)C(=O)O [P11, WKWRWKWRPGRWKWRWKW] (H-WKWRWKWRPGRWKWRWKW-OH; N-terminus assumed)
- linearity of self-assembled structure: exceed 1,000 nm
